Reference: PubChem BioAssay AID1224826 (NIAID, 2016)
The whole screen tested about 17,000 reagents; below is a random part of them. About 1,110 of them (6.6%) were called active. 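Active means lowered or raised reporter signal; replicate intensities are raw and not normalised per plate.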 Further read-outs or replicates are left out here.

Purpose: 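Regulators of Tlr4 signalling leading to Tnf-alpha expression in macrophages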 (primary screen)
System: RAW264.7 G9 macrophages from mouse bearing reporters for p65 (GFP) and the Tnf promoter (mCherry)
Knock-down reagent: siRNA pool against mouse genes, 100 nM
Timing: 16 h of LPS stimulation, after 2 days of siRNA transfection
Treatment: bacterial lipopolysaccharide (Salmonella minnesota R595), 10 ng/ml
Detection: 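Imaged Tnf reporter mCherry in nuclei, minus background, normalised per plate to the median and expressed as robust z-scores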
Reading the numbers: Tnf reporter robust z-score: higher = stronger Tnf promoter reporter signal after LPS
Active means: 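Called active when robust z-score is at most -1.3, matching the median of the Tlr4 knock-down control, or over 3; control wells and wells with under 50 cells never active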
Meaning of the calls: active = Tnf reporter clearly lowered or raised; inactive = no clear change in Tnf reporter

Asl | Tnf reporter robust z-score: 1.13; fewer than 50 cells in well: enough cells in well; call: inactive
Agtr1a | Tnf reporter robust z-score: -0.7; fewer than 50 cells in well: enough cells in well; call: inactive
Usp3 | Tnf reporter robust z-score: -0.3; fewer than 50 cells in well: enough cells in well; call: inactive
Vps16 | Tnf reporter robust z-score: 2.99; fewer than 50 cells in well: enough cells in well; call: inactive
6820408C15Rik | Tnf reporter robust z-score: 0.77; fewer than 50 cells in well: enough cells in well; call: inactive
B130040O20Rik | Tnf reporter robust z-score: -0.21; fewer than 50 cells in well: enough cells in well; call: inactive
Ring1 | Tnf reporter robust z-score: 0.78; fewer than 50 cells in well: enough cells in well; call: inactive
Adgrg7 | Tnf reporter robust z-score: 0.38; fewer than 50 cells in well: enough cells in well; call: inactive
Letmd1 | Tnf reporter robust z-score: 1.53; fewer than 50 cells in well: enough cells in well; call: inactive

2 entries already listed, arranged by “Tnf reporter robust z-score”, descending:
Ring1 | Tnf reporter robust z-score: 0.78; fewer than 50 cells in well: enough cells in well; call: inactive
B130040O20Rik | Tnf reporter robust z-score: -0.21; fewer than 50 cells in well: enough cells in well; call: inactive

Additional entries follow.
Mpp3 | fewer than 50 cells in well: fewer than 50 cells per well; well left out of calls; call: inactive
Bag1 | Tnf reporter robust z-score: -0.38; fewer than 50 cells in well: enough cells in well; call: inactive
Tet2 | Tnf reporter robust z-score: 1.72; fewer than 50 cells in well: enough cells in well; call: inactive
Inpp5f | Tnf reporter robust z-score: 0.02; fewer than 50 cells in well: enough cells in well; call: inactive
Ssu2 | fewer than 50 cells in well: fewer than 50 cells per well; well left out of calls; call: inactive
Or5b120 | Tnf reporter robust z-score: -0.34; fewer than 50 cells in well: enough cells in well; call: inactive
Abca7 | Tnf reporter robust z-score: 0.26; fewer than 50 cells in well: enough cells in well; call: inactive
Angel1 | Tnf reporter robust z-score: 0.13; fewer than 50 cells in well: enough cells in well; call: inactive
Pnma1 | Tnf reporter robust z-score: 0.33; fewer than 50 cells in well: enough cells in well; call: inactive
Lenep | Tnf reporter robust z-score: 2.13; fewer than 50 cells in well: enough cells in well; call: inactive
Kpna4 | Tnf reporter robust z-score: -0.05; fewer than 50 cells in well: enough cells in well; call: inactive
Tk1 | Tnf reporter robust z-score: 0.39; fewer than 50 cells in well: enough cells in well; call: inactive
